Test results published in PubChem BioAssay AID493014 (National Center for Advancing Translational Sciences (NCATS), 2011).
Hit rate of the full screen: of about 340,000 compounds, about 170 (0.05%) were called active. Inconclusive results, whose numbers are uncertain, are shown with a selection of clear calls. The call rests on the fitted dose curve; in most records, active means well fitted inhibition curve with a large enough effect in the signal ratio, with a control signal flat (not every such curve was filed as active); inconclusive means small, poorly fitted or top-dose-only effect, or effect the other way, or a change in a side signal; inactive means flat fitted curve, though single readings scatter; the % refers to the signal ratio. Potencies beside an inconclusive call are fits to weak or partial responses and may not hold up.

assay: qHTS Assay to Find Inhibitors of Chronic Active B-Cell Receptor Signaling; settings: ABC-DLBCL IkBa-CBG/CBR reporter, luminescence ratio (green luciferase fused to IkBa over red control in TMD8 lymphoma cells), 4 h; activity change, negative = inhibition: at 46.1 µM (top of the series);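 on activity change, negative = inhibition: plate controls were basal doxycycline-induced cells for no effect and cells given 10 µM MG132 for full effect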
Summary of the method: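 Doxycycline induced both beetle luciferases in TMD8 lymphoma cells; IKK-driven degradation limits the IkappaBalpha-fused green signal, while red luminescence normalises for cell number and nonspecific effects. Compounds tested up to 46 uM, 4 hrs.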
Potency means the concentration at half of the fitted maximal effect.

| SMILES | activity change, negative = inhibition | Potency |
| --- | --- | --- |
| COc1ccc(N2CCN(C(=O)NC34CC5CC(CC(C5)C3)C4)CC2)cc1 | inconclusive: 16.2% | – |
| Cc1c(NC(=O)c2cn3ccccc3n2)cccc1-n1cnnn1 | inconclusive: 9.28% | – |
| Nc1ccc2c(c1)OC1(CCCC1)O2 | inconclusive: -0.522% | – |
| CCC(C)N(C(=O)COc1ccccc1C#N)C1CCS(=O)(=O)C1 (stereo unspecified) | – | inconclusive: 18.4 µM [falling, single point] |
| COc1ccc([C@H]2CC(=O)C=C(c3ccc(C)c(F)c3)C2)cc1 | inconclusive: 7.72% | – |
| O=C(CSc1nnc(CNC(=O)c2cccs2)o1)Nc1cccc(Cl)c1 | inactive | – |
| COc1ccc2cc(-c3cc(C(=O)O)c4ccccc4n3)ccc2c1 | inconclusive: 1.09% | – |
| CCOC(=O)CSc1nc2nc(C)cc(C)n2n1 | inconclusive: 5.6% | – |
| CC(C)c1ccc(NC(=O)C(=O)c2cn(CC(=O)N3CCCCC3)c3ccccc23)cc1 | inconclusive: -12% | – |
| CN(Cc1ccc(F)cc1)C(=O)CNC(=O)c1cccs1 | inactive | – |
| Cc1cc(Cl)ccc1NC(=O)c1ccc2c(c1)CCN2S(C)(=O)=O | – | inconclusive: 31.6 µM [falling, partial curve, poor fit] |
| Cn1c(=O)[nH]c(=O)c2c1nc(N1CCOCC1)n2CC(O)COc1ccc2ccccc2c1 (stereo unspecified) | inconclusive: -0.176% | – |
| COc1ccc(C)cc1COC(=O)c1[nH]c(C)c(C(C)=O)c1C | – | inconclusive: 3.55 µM [falling, partial curve, poor fit] |
| CCC(=O)OC1(C)C(=O)C=C2C=C(c3ccsc3)OC=C2C1=O (stereo unspecified) | inconclusive: 2.86% | – |
| C=CC[C@@H](CC(=O)N[C@H](CO)Cc1ccccc1)C(=O)N[C@@H](COC(=O)[C@@H](CC=C)CC(=O)OC(C)(C)C)Cc1ccccc1 | inactive | – |
| CCOC(=O)c1cc(C)n(-c2ccc(Cl)cc2)c1C | inconclusive: -1.26% | – |
| CCCCc1ccc(NC(=S)N2CCN(c3ncccn3)CC2)cc1 | inactive | – |
| COc1ccc(C(C)=O)cc1CC(=O)Nc1cccc(S(=O)(=O)N2CCOCC2)c1 | inconclusive: 2.56% | – |
| COc1ccc(C2=NN(C(=O)CSc3ncccn3)C(c3cccc(OC)c3OC)C2)cc1 (stereo unspecified) | inconclusive: 4.5% | – |
| CC(C)(C)c1cc(NS(=O)(=O)c2cccs2)no1 | inactive | – |
| O=C(CCCOC(=O)c1ccc(O)cc1O)c1ccccc1 | inconclusive: 5.35% | – |
| COCc1ccc(-c2c(-c3ccsc3)sc3ccccc23)cc1 | inconclusive: 1.67% | – |
| NS(=O)(=O)c1ccc(N/N=C/c2ccccc2C(=O)O)c([N+](=O)[O-])c1 | inactive | – |
| O=C(O)c1cccc(S(=O)(=O)N2CCSCC2)c1 | inconclusive: 1.42% | – |
| Cc1ccc(S(=O)(=O)NCC2CCCO2)cc1[N+](=O)[O-] (stereo unspecified) | inconclusive: 0.0776% | – |
| CCCOc1ccc(C2C(=O)N(C3CCC(C)CC3)CC(=O)N2Cc2cccc(OC)c2)cc1OC (stereo unspecified) | inconclusive: 1.96% | – |

One compound at a time, from the list above. Values in the order: activity change, negative = inhibition | Potency
`Nc1ccc2c(c1)OC1(CCCC1)O2` is listed with inconclusive: -0.522% | –
`CCC(C)N(C(=O)COc1ccccc1C#N)C1CCS(=O)(=O)C1` (stereo unspecified) is listed with – | inconclusive: 18.4 µM [falling, single point]
`CN(Cc1ccc(F)cc1)C(=O)CNC(=O)c1cccs1` is listed with inactive | –

Additional results:

| SMILES | activity change, negative = inhibition | Potency |
| --- | --- | --- |
| COc1ccc(N(CC(=O)N2CCN(c3ccccc3)CC2)S(=O)(=O)c2ccc(C)cc2)cc1 | inconclusive: -2.37% | – |
| CCOC(=O)c1[nH]c2ccccc2c1NC(=S)Nc1cccc(C)c1 | inconclusive: -10.9% | – |
| C=C(C)CNC(=S)N/N=C/c1ccco1 | – | inconclusive: 25.1 µM [falling, single point] |
| COc1ccc(CNc2ccc3c(c2)ncn3-c2ccccc2OC)cc1 | – | inconclusive: 17.8 µM [falling, partial curve, poor fit] |
| CCCOC(=O)c1ccc(NC(=O)c2cc(=O)[nH]c3ccccc23)cc1 | inconclusive: 2.86% | – |
| CCOc1ccc(S(=O)(=O)NCC2CCCO2)c2ccccc12 (stereo unspecified) | inconclusive: -2.76% | – |
| O=C(N/N=C/C=C/c1ccccc1)c1cccs1 | – | inconclusive: 3.55 µM [falling, partial curve] |
| Cc1ccc(-n2c(O)c(C=NC3CCS(=O)(=O)C3)c3ccccc3c2=O)cc1C (stereo unspecified) | inactive | – |
| NC(=O)c1ccnc2c(O)cccc12 | inconclusive: 6.65% | – |
| CCN(CC)S(=O)(=O)c1ccc(Cl)c(NC(=O)COC(=O)c2cccn2C)c1 | inconclusive: -0.533% | – |
| NC(=O)CSc1nnc(-c2ccc(O)cc2)n1Cc1ccco1 | inactive | – |
| COc1ccc2cc(C(=O)C3CCCN(Cc4cccc(C)n4)C3)ccc2c1 (stereo unspecified) | – | inconclusive: 12.6 µM [falling, partial curve] |
| Cc1cc(C)c(OCCOCCN2CCN(C)CC2)c(Cl)c1 | inactive | – |
| COc1cc(NS(=O)(=O)c2ccc(NC(=S)NC(=O)/C=C/c3ccc(F)cc3)cc2)ncn1 | inconclusive: 1.34% | – |
| Cc1ccc2[nH]c3c(c2c1)CCc1cn[nH]c1-3 | inactive | – |
| CS(=O)(=O)c1ccc(Cl)c(NC(=O)CCl)c1 | – | inconclusive: 15.8 µM [falling, single point] |
| CC(C)N(CC(=O)Nc1ccc(Cl)cc1C(F)(F)F)C(=O)CCl | – | inconclusive: 25.1 µM [falling, single point] |
| CCC/C(=N/NC(=O)c1csc(C)c1C)c1ccc(Cl)s1 | – | inconclusive: 20.6 µM [falling, partial curve, poor fit] |
| Nc1nnc(-c2cc3ccccc3oc2=O)s1 | – | inconclusive: 7.31 µM [falling, partial curve, poor fit] |
| Cc1cc(-c2nnc(CCC(=O)NCc3cc(F)cc(C(F)(F)F)c3)o2)no1 | inactive | – |
| COc1cc2c(cc1OC)C(C(=O)Nc1cc(C)c(OC)c(C)c1)CC(=O)N2 (stereo unspecified) | inconclusive: -2.49% | – |
| CCOC(=O)C(=CNc1nc(-c2ccccc2)c(C(=O)Nc2ccc(-c3ccccc3)cc2)s1)C(=O)OCC | inactive | – |
| CCOC(=O)c1c(C)oc2ccc(OCC(=O)C(C)(C)C)cc12 | – | inconclusive: 6.51 µM [rising, single point] |
| C[C@@H]1CN([C@H](C)CO)C(=O)Cc2cc(NC(=O)Cn3cnnn3)ccc2O[C@@H]1CN(C)Cc1ccc(Cl)c(Cl)c1 | inconclusive: 1.32% | – |
| COc1ccccc1OCC(=O)NCc1n[nH]c(=O)c2ccccc12 | – | inconclusive: 25.9 µM [falling, single point] |
